# Experimental data: the supplement of paper PMC3682954
# Where “and” joins values, the source holds several entries; their conditions need not be identical. Equal entries are not always repeated. Structures can show the parent of a compound that is named as a salt. ± gives the standard deviation of the averaged measurements. The list shows a part of the results. Single values are uncertain, as repeats are few or missing.
# System: RAW 264.7
# Test: cell viability (MTT) relative to vehicle control; higher = more viable cells
# Details: stimulus: HMGB1 5 ug/ml, 18 h
# [1] = compound concentration: 1 ug/ml
Compound,cell viability (compound concentration: 3 uM),cell viability [1] [%]
N=C(N)NC(=N)NCCc1ccccc1,108%,–
N=C(N)NC(=N)NCCc1ccccc1 [Phenformin hydrochloride],105%,–
CO[C@H]1/C=C/O[C@@]2(C)Oc3c(C)c(O)c4c(O)c(c(/C=N/N5CCN(C6CCCC6)CC5)c(O)c4c3C2=O)NC(=O)/C(C)=C\C=C\[C@H](C)[C@H](O)[C@@H](C)[C@@H](O)[C@@H](C)[C@H](OC(C)=O)[C@@H]1C [Rifapentine],116%,–
CO[C@H]1/C=C/O[C@@]2(C)Oc3c(C)c(O)c4c(O)c(c(/C=N/N5CCN(C6CCCC6)CC5)c(O)c4c3C2=O)NC(=O)/C(C)=C\C=C\[C@H](C)[C@H](O)[C@@H](C)[C@@H](O)[C@@H](C)[C@H](OC(C)=O)[C@@H]1C,99.6%,–
CC(C)(C)NC[C@@H](O)COc1cccc2c1CCCC2=O [(+) -Levobunolol hydrochloride],87.7%,–
NCC(O)C1CCCCCCC1 (stereo not given) [2-Cyclooctyl-2-hydroxyethylamine hydrochloride],110%,–
CN1CCC(=C2c3ccccc3C=Cc3ccccc32)CC1 [Cyproheptadine hydrochloride],103.4 ± 0.79%,–
CN1CCC(=C2c3ccccc3C=Cc3ccccc32)CC1,97.5 ± 4.6%,–
CN1CCC(=C2c3ccccc3C=Cc3ccccc32)CC1 [Cyproheptadine],90.5%,–
O=c1c(O)c(-c2ccc(O)cc2O)oc2cc(O)cc(O)c12 [Morin],103%,–
O=c1c(O)c(-c2ccc(O)cc2O)oc2cc(O)cc(O)c12 [Morin hydrate],–,115
CC(/C=C/c1cccc(Oc2ccc(F)cc2)c1)N(O)C(N)=O (stereo not given),98.4%,–
COc1ccc(C2CNC(=O)C2)cc1OC1CCCC1 (stereo not given) [Rolipram],99.5 ± 16%,–
COc1ccc(C2CNC(=O)C2)cc1OC1CCCC1 (stereo not given),96.4 ± 15%,–
CC(C)C[C@@H](NC(=O)[C@H](C)NC(=O)CNC(=O)[C@@H](NC=O)C(C)C)C(=O)N[C@@H](C)C(=O)N[C@@H](C(=O)N[C@H](C(=O)N[C@H](C(=O)N[C@@H](Cc1c[nH]c2ccccc12)C(=O)N[C@H](CC(C)C)C(=O)N[C@@H](Cc1c[nH]c2ccccc12)C(=O)N[C@H](CC(C)C)C(=O)N[C@@H](Cc1c[nH]c2ccccc12)C(=O)N[C@H](CC(C)C)C(=O)N[C@@H](Cc1c[nH]c2ccccc12)C(=O)NCCO)C(C)C)C(C)C)C(C)C,27.1%,–
OC[C@H]1O[C@@H](Oc2cc(O)cc(/C=C/c3ccc(O)cc3)c2)[C@H](O)[C@@H](O)[C@@H]1O,96.5%,–
NC(=O)NCCCC(N)C(=O)O (stereo not drawn) [L(+)-Citrulline],–,100
CCCCN1CCCC1CNC(=O)c1cc(C#N)c2ccccc2c1OC (stereo not given) [Nafadotride],104%,–
c1ccc2c3c([nH]c2c1)C1C2CCC(C4CCCNC42)N1CC3 (stereo not given) [Nitrarine dihydrochloride],108%,–
O=C1C[C@@H](c2ccc(O)cc2)Oc2cc(O)cc(O)c21 [Naringenin],–,97.8
CCC(=O)O[C@]1(C(=O)CCl)[C@@H](C)C[C@H]2[C@@H]3CCC4=CC(=O)C=C[C@]4(C)[C@@]3(F)[C@@H](O)C[C@@]21C [Clobetasol propionate],146%,–
CCC(=O)O[C@]1(C(=O)CCl)[C@@H](C)C[C@H]2[C@@H]3CCC4=CC(=O)C=C[C@]4(C)[C@@]3(F)[C@@H](O)C[C@@]21C,107%,–
CCC(=O)O[C@]1(C(=O)CCl)[C@@H](C)C[C@H]2[C@@H]3CCC4=CC(=O)C=C[C@]4(C)[C@@]3(F)[C@@H](O)C[C@@]21C [Clobetasol Propionate],106%,–
c1ccc([C@H]2CN3CCSC3=N2)cc1 [Levamisole],99.6%,–
c1ccc([C@H]2CN3CCSC3=N2)cc1,111%,–

Compound,cell viability (compound concentration: 3 uM),cell viability [1] [%]
c1ccc([C@H]2CN3CCSC3=N2)cc1 [Levamisole hydrochloride],101%,–
CC(C)C[C@H](NP(=O)(O)O[C@H]1O[C@H](C)[C@@H](O)[C@H](O)[C@@H]1O)C(=O)N[C@@H](Cc1c[nH]c2ccccc12)C(=O)O [Phosphoramidon disodium],121%,–
Cc1c(O)c(=O)ccn1C,92.6% and 101%,–
O=S(=O)(O)c1cc(O)ccc1O [Ethamsylate],96.2%,–
Cc1ccc([N+](=O)[O-])cc1S(=O)(=O)N(C)C,97.1%,–
Oc1ccc([C@@H]2CNCc3sccc32)cc1O,123%,–
COc1ccc(-c2cc3ncc(C)n3c(Nc3ncccc3C(N)=O)n2)cc1OC [BAY 61-3606 hydrochloride hydrate],115%,–
NC(=O)c1ccc([N+](=O)[O-])cc1Cl,98.1 ± 5%,–
O=C1OCCN1/N=C/c1ccc([N+](=O)[O-])o1,110%,–
O=C1OCCN1/N=C/c1ccc([N+](=O)[O-])o1 [Furazolidone],94.5%,–
CN(C)c1nc(N(C)C)nc(N(C)C)n1 [Altretamine],104 ± 6%,–
CN(C)c1nc(N(C)C)nc(N(C)C)n1,99.6 ± 7.3%,–
Nc1nc2n[nH]nc2c(=O)[nH]1 [Azaguanine-8],74.3%,–
Nc1nc2c(nc(Br)n2C2OC3COP(=O)(O)O[C@@H]3C2O)c(=O)[nH]1 (stereo not given in full) [8-Bromo-cGMP sodium],110%,–
O=C(O)c1cc(-c2ccccc2)nc2ccccc12,109%,–
CC(=O)O[C@]1(C(C)=O)CC[C@H]2[C@@H]3C[C@H](C)C4=CC(=O)CC[C@]4(C)[C@H]3CC[C@@]21C [Medroxyprogesterone 17-Acetate],103%,–
CC(=O)O[C@]1(C(C)=O)CC[C@H]2[C@@H]3C[C@H](C)C4=CC(=O)CC[C@]4(C)[C@H]3CC[C@@]21C,104%,–
CC(C)NCC(O)c1ccc2ccccc2c1 (stereo not given) [Pronethalol hydrochloride],81.6%,–
CC(C)NCC(O)c1ccc2ccccc2c1 (stereo not given),106%,–
CC(C)NCC(O)c1ccc2ccccc2c1 (stereo not given) [Pronethalol],104%,–
C[C@H]1C[C@@H]2[C@H]([C@@H](O)C[C@@]3(C)[C@H]2CC[C@]3(O)C(=O)CO)[C@@]2(C)C=CC(=O)C=C12 [Methylprednisolone],94.9%,–
C[C@H]1C[C@@H]2[C@H]([C@@H](O)C[C@@]3(C)[C@H]2CC[C@]3(O)C(=O)CO)[C@@]2(C)C=CC(=O)C=C12,113%,–
"C[C@H]1C[C@@H]2[C@H]([C@@H](O)C[C@@]3(C)[C@H]2CC[C@]3(O)C(=O)CO)[C@@]2(C)C=CC(=O)C=C12 [Methylprednisolone, 6-alpha]",110%,–
COc1cc([C@@H]2c3cc4c(cc3[C@@H](O[C@@H]3O[C@@H]5CO[C@@H](C)O[C@H]5[C@H](O)[C@H]3O)[C@H]3COC(=O)[C@H]23)OCO4)cc(OC)c1O [Etoposide],100 ± 9.2%,–
COc1cc([C@@H]2c3cc4c(cc3[C@@H](O[C@@H]3O[C@@H]5CO[C@@H](C)O[C@H]5[C@H](O)[C@H]3O)[C@H]3COC(=O)[C@H]23)OCO4)cc(OC)c1O,94.9 ± 3.1%,–

Compound,cell viability (compound concentration: 3 uM),cell viability [1] [%]
COc1cc([C@@H]2c3cc4c(cc3[C@@H](O[C@@H]3O[C@@H]5CO[C@@H](C)O[C@H]5[C@H](O)[C@H]3O)[C@H]3COC(=O)[C@H]23)OCO4)cc(OC)c1O [Etoposide; VP-16-213],–,99.4
COc1ccccc1OCC(O)CN1CCN(CC(=O)Nc2c(C)cccc2C)CC1 (stereo not given) [Ranolazine dihydrochloride],107 ± 18%,–
COc1ccccc1OCC(O)CN1CCN(CC(=O)Nc2c(C)cccc2C)CC1 (stereo not given) [Ranolazine],104 ± 2%,–
COc1ccccc1OCC(O)CN1CCN(CC(=O)Nc2c(C)cccc2C)CC1 (stereo not given),110%,–
O=[N+]([O-])c1cccc2cn[nH]c12 [7-Nitroindazole],107%,–
O=[N+]([O-])c1cccc2cn[nH]c12,117 ± 25%,–
COc1cc(/C=C(\C#N)C(=O)Nc2nnc(C(F)(F)F)s2)ccc1OCc1ccc(C(F)(F)F)cc1C(F)(F)F,121%,–
CCCCCCCCCCCCCCCCCC(=O)OC(CC(=O)O)C[N+](C)(C)C (racemic) [DL-Stearoylcarnitine chloride],136%,–
CCCNCC(O)COc1ccccc1C(=O)CCc1ccccc1 (stereo not given) [Propafenone hydrochloride],97.5 ± 2.2%,–
CCCNCC(O)COc1ccccc1C(=O)CCc1ccccc1 (stereo not given),113%,–
CCCNCC(O)COc1ccccc1C(=O)CCc1ccccc1 (stereo not given) [Propafenone],109%,–
NC(=O)C(c1ccccc1)(c1ccccc1)[C@@H]1CCN(CCc2ccc3c(c2)CCO3)C1,117%,–
CCc1cn([C@H]2C[C@H](O)[C@@H](CO)O2)c(=O)[nH]c1=O,112%,–
CCc1cn([C@H]2C[C@H](O)[C@@H](CO)O2)c(=O)[nH]c1=O [5-Ethyl-2'-deoxyuridine ; Edoxudine],–,96.2
CC(C)NC[C@@H](O)COc1cccc2ccccc12 [(R)-Propranolol hydrochloride],96.4%,–
CC(C)NC[C@@H](O)COc1cccc2ccccc12,100%,–
Nc1ncnc2c1c(-c1ccc(Oc3ccccc3)cc1)cn2C1CCCC1,100%,–
CNCC(O)c1ccc(OC(=O)C(C)(C)C)c(OC(=O)C(C)(C)C)c1 (stereo not given) [Dipivefrin hydrochloride],111%,–
"CC(C)NCC(O)c1ccc(O)c(O)c1 (single isomer, unassigned; (+)) [(+)-Isoproterenol (+)-bitartrate salt]",109%,–
CCN(CC)CCc1nc(-c2ccccc2)no1,97.7%,–
CCN(CC)CCc1nc(-c2ccccc2)no1 [Oxalamine citrate salt],108%,–
CC(NCCC(c1ccccc1)c1ccccc1)c1ccccc1 (stereo not given) [Fendiline hydrochloride],110%,–
CC(NCCC(c1ccccc1)c1ccccc1)c1ccccc1 (stereo not given),108%,–
O=c1[nH]c(=O)n(C2CCCO2)cc1F (stereo not given),87.8%,–
O=c1[nH]c(=O)n(C2CCCO2)cc1F (stereo not given) [Ftorafur],99.9%,–

# Not a retest: entries from further up.
Compound,cell viability (compound concentration: 3 uM),cell viability [1] [%]
O=[N+]([O-])c1cccc2cn[nH]c12 [7-Nitroindazole],107%,–
O=[N+]([O-])c1cccc2cn[nH]c12,117 ± 25%,–
COc1cc(/C=C(\C#N)C(=O)Nc2nnc(C(F)(F)F)s2)ccc1OCc1ccc(C(F)(F)F)cc1C(F)(F)F,121%,–
CCCCCCCCCCCCCCCCCC(=O)OC(CC(=O)O)C[N+](C)(C)C (racemic) [DL-Stearoylcarnitine chloride],136%,–
CCCNCC(O)COc1ccccc1C(=O)CCc1ccccc1 (stereo not given) [Propafenone hydrochloride],97.5 ± 2.2%,–
CCCNCC(O)COc1ccccc1C(=O)CCc1ccccc1 (stereo not given),113%,–
